Test results published in PubChem BioAssay AID248 (DTP/NCI, 2004).
The list is a part of this screen's results and no random one: it is rich in T/C values a quarter to a half above the control, in often repeated tests (any T/C) and in doses without a T/C. Further doses and runs are listed elsewhere. T/C gives the treated animals as a percentage of the vehicle group. Some entries give survivors of the animals treated and no T/C: the source holds a T/C of zero for them, seemingly a mark for toxic or unscored doses. Some doses without a T/C left all or most animals alive at the check, yet need not have been tolerated: survival well below the control is almost never listed, so the zero probably covers shortened survival too. Survivors were counted at the toxicity check, usually on the fifth day, unless a day is given; later deaths do not show. Schedules are NCI's codes, taken here to give the interval after Q, in days (D) or hours (H), and the number of doses after X. Some doses were run more than once; the values are given in rising order. Some schedule codes hold Z or #, which are not explained here. Where survival is the endpoint, the PubChem record calls one and a half times the control and up active, and a quarter to a half above the control has no call in these data; cut-offs in other NCI protocols can differ.

Tested on: L1210 leukemia ip in BDF1 mice, survival T/C
Experiment: NCI In Vivo Anticancer Drug Screen. Data for tumor model L1210 Leukemia (intraperitoneal) in B6D2F1 (BDF1) mice
Conditions: T/C endpoint: mean survival time, higher T/C = longer survival
[1] = dose: 400.0 mg/kg/injection, schedule: Q01DX009 (ip), vehicle: saline with Tween-80
[2] = dose: 200.0 mg/kg/injection, schedule: Q01DX009 (ip), vehicle: saline

Question: `C/C(=N/N)c1ccc(Br)cc1` was tested. Which T/C (dose: 15.0 mg/kg/injection, schedule: Q01DX009 (ip), vehicle: saline) did it give?
Answer: Its T/C is 132 % of control.

Question: What about the T/C (dose: 30.0 mg/kg/injection, schedule: Q01DX009 (ip), vehicle: saline) of the same compound?
Answer: The T/C was 126 % of control.

Question: What about the survivor count (dose: 60.0 mg/kg/injection, schedule: Q01DX009 (ip), vehicle: saline) of the same compound?
Answer: The survivor count was 0 of 6.

Question: And the survivor count (dose: 100.0 mg/kg/injection, schedule: Q01DX001 (ip), vehicle: saline)?
Answer: Its survivor count is 2 of 6.

Question: And the survivor count (dose: 120.0 mg/kg/injection, schedule: Q01DX009 (ip), vehicle: saline)?
Answer: Its survivor count is 0 of 6.

Question: And the survivor count (dose: 200.0 mg/kg/injection, schedule: Q01DX001 (ip), vehicle: saline)?
Answer: Its survivor count is 0 of 6.

Question: What about the survivor count (dose: 240.0 mg/kg/injection, schedule: Q01DX009 (ip), vehicle: saline) of the same compound?
Answer: The survivor count was 0 of 6.

Question: What about the survivor count (dose: 400.0 mg/kg/injection, schedule: Q01DX001 (ip), vehicle: saline) of the same compound?
Answer: The survivor count was 0 of 6.

Question: Which survivor count (dose: 400.0 mg/kg/injection, schedule: Q01DX009 (ip), vehicle: saline) does the source give for `CCCC(SCC(=O)O)SCC(=O)O` here?
Answer: The survivor count was 1 of 3.

Question: Which results are given for `CC1CNC(c2ccc(NC(=O)Nc3cc(C(=O)Nc4ccc(C5=NC(C)CN5)cc4)ccc3C(=O)Nc3ccc(C4=NC(C)CN4)cc3)cc2)=N1` (centres undefined)?
Answer: survivor count (dose: 15.0 mg/kg/injection, schedule: Q01DX Z (ip), vehicle: saline): 4 of 6; survivor count (dose: 30.0 mg/kg/injection, schedule: Q01DX Z (ip), vehicle: saline): 0 of 6; survivor count (dose: 60.0 mg/kg/injection, schedule: Q01DX Z (ip), vehicle: saline): 0 of 6; survivor count (dose: 120.0 mg/kg/injection, schedule: Q01DX Z (ip), vehicle: saline): 0 of 6

Question: With `COc1nc(N)c(C#N)c(C#N)c1C#N` as the compound, how does the survivor count (dose: 60.0 mg/kg/injection, schedule: Q01DX001 (ip), vehicle: carboxymethylcellulose (CMC)) read?
Answer: Its survivor count is 1 of 6.

Question: And the survivor count (dose: 75.0 mg/kg/injection, schedule: Q01DX001 (ip), vehicle: carboxymethylcellulose (CMC))?
Answer: Its survivor count is 1 of 6.

Question: And the survivor count (dose: 150.0 mg/kg/injection, schedule: Q01DX001 (ip), vehicle: carboxymethylcellulose (CMC))?
Answer: The survivor count was 1 of 6.

Question: And the survivor count (dose: 300.0 mg/kg/injection, schedule: Q01DX001 (ip), vehicle: carboxymethylcellulose (CMC))?
Answer: Its survivor count is 0 of 6.

Question: `CN1C2CCCCC1CC(=O)NC2` (centres undefined) was tested. Which survivor count (dose: 300.0 mg/kg/injection, schedule: Q01DX001 (ip), vehicle: saline) did it give?
Answer: The survivor count was 0 of 6.

Question: Which survivor count [1] does the source give for `N#CCC(=O)N1CCc2ccccc2C1` here?
Answer: Its survivor count is 1 of 3.

Question: With `Nc1nc(=O)n(C2OC(CO)C(O)C2O)c2scnc12` (centres undefined) as the compound, how does the survivor count (dose: 200.0 mg/kg/injection, schedule: Q01DX005 (ip), vehicle: saline) read?
Answer: The survivor count was 2 of 4.

Question: `CCCCC#CCCl` was tested. Which survivor count [2] did it give?
Answer: Its survivor count is 2 of 6.

Question: What about the survivor count (dose: 300.0 mg/kg/injection, schedule: Q01DX009 (ip), vehicle: saline) of the same compound?
Answer: Its survivor count is 0 of 6.

Question: Which survivor count (dose: 128.0 mg/kg/injection, schedule: Q01DX Z (ip), vehicle: other) does the source give for `CCOC(=O)c1cc(C(=O)OCC)c[n+](CCCl)c1` here?
Answer: The survivor count was 0 of 6.

Question: How did the survivor count (dose: 50.0 mg/kg/injection, schedule: Q01DX009 (ip), vehicle: saline with Tween-80) turn out when `Cc1noc(NC(=O)Nc2ccc(Cl)cc2Cl)c1C` was run?
Answer: Its survivor count is 3 of 3.

Question: What does the source list for `N#[N+]c1c(C(=O)O)[nH]c(=O)[nH]c1=O`?
Answer: T/C (dose: 12.5 mg/kg/injection, schedule: Q01DX Z (ip), vehicle: carboxymethylcellulose (CMC)): 132 % of control; T/C (dose: 25.0 mg/kg/injection, schedule: Q01DX009 (ip), vehicle: saline with Tween-80): 141 % of control; T/C (dose: 25.0 mg/kg/injection, schedule: Q01DX Z (ip), vehicle: carboxymethylcellulose (CMC)): 135 % of control; T/C (dose: 25.0 mg/kg/injection, schedule: Q01DX Z (ip), vehicle: methylcellulose (MC)): 127 % of control; T/C (dose: 50.0 mg/kg/injection, schedule: Q01DX Z (ip), vehicle: methylcellulose (MC)): 140 % of control; survivor count (dose: 100.0 mg/kg/injection, schedule: Q01DX Z (ip), vehicle: carboxymethylcellulose (CMC)): 0 of 6; survivor count (dose: 100.0 mg/kg/injection, schedule: Q01DX Z (ip), vehicle: methylcellulose (MC)): 1 of 6; survivor count (dose: 200.0 mg/kg/injection, schedule: Q01DX Z (ip), vehicle: carboxymethylcellulose (CMC)): 0 of 6; survivor count (dose: 200.0 mg/kg/injection, schedule: Q01DX Z (ip), vehicle: methylcellulose (MC)): 0 of 6; survivor count (dose: 600.0 mg/kg/injection, schedule: Q01DX009 (ip), vehicle: saline): 4 of 6

Question: `CCOC(=O)C(NC(=O)CCl)C(=O)OCC` was tested. Which survivor count (dose: 400.0 mg/kg/injection, schedule: Q04DX003 (ip), vehicle: Klucel (hydroxypropylcellulose) (HPC)) did it give?
Answer: Its survivor count is 4 of 6.

Question: For `ClC(Cl)(Cl)CC(Br)C(Br)CBr` (centres undefined), which survivor count (dose: 200.0 mg/kg/injection, schedule: Q01DX009 (ip), vehicle: acetone) is on record?
Answer: Its survivor count is 6 of 6.

Question: And the survivor count (dose: 400.0 mg/kg/injection, schedule: Q01DX009 (ip), vehicle: acetone)?
Answer: The survivor count was 3 of 6.

Question: With `BrCC[CH2][Sn]([Br])([Br])[Br]` as the compound, how does the survivor count [2] read?
Answer: Its survivor count is 3 of 3.

Question: How did the survivor count (dose: 400.0 mg/kg/injection, schedule: Q04DX003 (ip), vehicle: alcohol) turn out when `Cc1ccc(/C=C2/C=C(c3ccccc3)OC2=O)cc1` was run?
Answer: The survivor count was 3 of 6.

Question: For `CC(C)NC(=O)CCSCCC(=O)NC(C)C`, which T/C (dose: 100.0 mg/kg/injection, schedule: Q04DX002 (ip), vehicle: other) is on record?
Answer: The T/C was 136 % of control.

Question: Which survivor count (dose: 400.0 mg/kg/injection, schedule: Q01DX009 (ip), vehicle: carboxymethylcellulose (CMC)) does the source give for `CCCCCCCC(=O)N(CCCCC)CCCCC` here?
Answer: Its survivor count is 2 of 3 and 5 of 6.

Question: How did the survivor count [1] turn out when `Cc1nc(-c2ccc(N=Cc3ccc(N(CCCOS(C)(=O)=O)CCCOS(C)(=O)=O)cc3C)cc2)c(C)s1` was run?
Answer: Its survivor count is 3 of 6.

Question: What does the source list for `CC[S][Pb]([c]1ccccc1)([c]1ccccc1)[c]1ccccc1`?
Answer: survivor count (dose: 25.0 mg/kg/injection, schedule: Q04DX002 (ip), vehicle: Klucel (hydroxypropylcellulose) (HPC)): 3 of 3; survivor count (dose: 50.0 mg/kg/injection, schedule: Q04DX002 (ip), vehicle: Klucel (hydroxypropylcellulose) (HPC)): 3 of 3; survivor count (dose: 100.0 mg/kg/injection, schedule: Q04DX002 (ip), vehicle: Klucel (hydroxypropylcellulose) (HPC)): 0 of 3; survivor count (dose: 200.0 mg/kg/injection, schedule: Q04DX002 (ip), vehicle: Klucel (hydroxypropylcellulose) (HPC)): 0 of 3; survivor count (dose: 400.0 mg/kg/injection, schedule: Q04DX002 (ip), vehicle: Klucel (hydroxypropylcellulose) (HPC)): 0 of 3

Question: `COC1C(O)C(CO)OC1n1cnc2c(=S)nc[nH]c21` (centres undefined) was tested. Which T/C (dose: 200.0 mg/kg/injection, schedule: Q01DX001 (ip), vehicle: carboxymethylcellulose (CMC)) did it give?
Answer: The T/C was 129 % of control.

Question: With `c1ccc(COc2ccnc(SCc3ccccc3)n2)cc1` as the compound, how does the survivor count (dose: 400.0 mg/kg/injection, schedule: Q01DX009 (ip), vehicle: Klucel (hydroxypropylcellulose) (HPC)) read?
Answer: Its survivor count is 6 of 6.
